From article doi:10.1101/591974
Results are given in words; binding and its absence hold for the method and conditions named. In cells and extracts the contact can be indirect. A result given as binding can be weak or reduced; the word gives no strength. Tags and fused reporters may be left off the sequences shown.

Experiments:
[1] = molecular target: T1, GST-Hs-RAB3A-Q81L (human) (UniProt P20336); test: pull-down
T1 sequence: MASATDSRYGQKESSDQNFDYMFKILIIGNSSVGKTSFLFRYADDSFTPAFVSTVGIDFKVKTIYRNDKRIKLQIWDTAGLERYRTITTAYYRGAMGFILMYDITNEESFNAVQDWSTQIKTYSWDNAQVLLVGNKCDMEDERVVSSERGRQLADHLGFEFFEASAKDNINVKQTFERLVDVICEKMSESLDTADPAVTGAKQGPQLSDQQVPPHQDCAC

GST-Rn-RAB27A-Q78L (Rn) = molecular target: T2, GST-Rn-RAB27A-Q78L (Rn) (UniProt P23640); test: pull-down
T2 sequence: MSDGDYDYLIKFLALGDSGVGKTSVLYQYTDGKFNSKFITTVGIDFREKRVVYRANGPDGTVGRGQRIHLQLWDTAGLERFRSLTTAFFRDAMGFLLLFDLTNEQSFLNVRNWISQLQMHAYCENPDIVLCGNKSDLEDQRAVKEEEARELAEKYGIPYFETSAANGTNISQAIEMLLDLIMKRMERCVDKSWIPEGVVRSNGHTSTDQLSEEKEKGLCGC

- binding [1]: binds weakly
- binding (GST-Rn-RAB27A-Q78L (Rn)): binds
Substance: AcGFP1-tagged full-length Hs-SPIRE1 (human)
